# Assay results reported in publication PMC4671723.
# These are yes or no findings as the source states them, for the method shown. In cells and extracts the contact can be indirect. Some entries that bind do so weakly or less than the wild type. Sequences can lack the tags named with a protein.
# T1: ALP1-GFP (ANTAGONIST OF LIKE HETEROCHROMATIN PROTEIN1 fused in frame to GFP) (Arabidopsis), Q94K49
# T1 chain: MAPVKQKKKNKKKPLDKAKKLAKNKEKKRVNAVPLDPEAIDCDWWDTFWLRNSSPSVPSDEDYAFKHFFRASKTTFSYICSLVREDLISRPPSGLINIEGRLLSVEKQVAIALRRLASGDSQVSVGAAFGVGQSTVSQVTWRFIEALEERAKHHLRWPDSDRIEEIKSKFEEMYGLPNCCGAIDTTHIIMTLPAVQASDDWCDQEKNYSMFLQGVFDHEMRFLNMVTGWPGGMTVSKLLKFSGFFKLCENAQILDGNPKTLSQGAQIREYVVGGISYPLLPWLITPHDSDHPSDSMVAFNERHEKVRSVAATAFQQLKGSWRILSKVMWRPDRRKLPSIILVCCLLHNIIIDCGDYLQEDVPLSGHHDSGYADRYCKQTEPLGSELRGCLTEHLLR
# B1: CURLY LEAF (CLF), P93831 1-902 (protein)
# chain: MASEASPSSSATRSEPPKDSPAEERGPASKEVSEVIESLKKKLAADRCISIKKRIDENKKNLFAITQSFMRSSMERGGSCKDGSDLLVKRQRDSPGMKSGIDESNNNRYVEDGPASSGMVQGSSVPVKISLRPIKMPDIKRLSPYTTWVFLDRNQRMTEDQSVVGRRRIYYDQTGGEALICSDSEEEAIDDEEEKRDFLEPEDYIIRMTLEQLGLSDSVLAELASFLSRSTSEIKARHGVLMKEKEVSESGDNQAESSLLNKDMEGALDSFDNLFCRRCLVFDCRLHGCSQDLIFPAEKPAPWCPPVDENLTCGANCYKTLLKSGRFPGYGTIEGKTGTSSDGAGTKTTPTKFSSKLNGRKPKTFPSESASSNEKCALETSDSENGLQQDTNSDKVSSSPKVKGSGRRVGRKRNKNRVAERVPRKTQKRQKKTEASDSDSIASGSCSPSDAKHKDNEDATSSSQKHVKSGNSGKSRKNGTPAEVSNNSVKDDVPVCQSNEVASELDAPGSDESLRKEEFMGETVSRGRLATNKLWRPLEKSLFDKGVEIFGMNSCLIARNLLSGFKSCWEVFQYMTCSENKASFFGGDGLNPDGSSKFDINGNMVNNQVRRRSRFLRRRGKVRRLKYTWKSAAYHSIRKRITEKKDQPCRQFNPCNCKIACGKECPCLLNGTCCEKYCGCPKSCKNRFRGCHCAKSQCRSRQCPCFAADRECDPDVCRNCWVIGGDGSLGVPSQRGDNYECRNMKLLLKQQQRVLLGISDVSGWGAFLKNSVSKHEYLGEYTGELISHKEADKRGKIYDRENCSFLFNLNDQFVLDAYRKGDKLKFANHSPEPNCYAKVIMVAGDHRVGIFAKERILAGEELFYDYRYEPDRAPAWAKKPEAPGSKKDENVTPSVGRPKKLA
# B2: MSI1, O22467 1-424 (protein)
# chain: MGKDEEEMRGEIEERLINEEYKIWKKNTPFLYDLVITHALEWPSLTVEWLPDREEPSGKDYSVQKMILGTHTSESEPNYLMLAQVQLPLDDTESEARQYDDDRSEFGGFGCATGKVQIIQQINHDGEVNRARYMPQNPFIIATKTVNAEVYVFDYSKHPSKPPLDGACNPDLKLRGHSSEGYGLSWSKFKQGHLLSGSDDAQICLWDINATPKNKSLDAQQIFKAHEGVVEDVAWHLRHEYLFGSVGDDQYLLIWDLRSPSASKPVQSVVAHSMEVNCLAFNPFNEWVVATGSTDKTVKLFDLRKLSTALHTFDSHKEEVFQVGWNPKNETILASCCLGRRLMVWDLSRIDEEQTVEDAEDGPPELLFIHGGHTSKISDFSWNPCEDWVISSVAEDNILQIWQMAENIYHDEDDAPGEEPSKAS
# Biological target: T1, ALP1-GFP (ANTAGONIST OF LIKE …)
# Assay: co-IP; extracts from 35S::ALP1-GFP plants immunoprecipitated with anti-GFP antibodies different from those of the IP-MS; Western blot with anti-CLF or anti-MSI1 antibodies
# Details: remark: other sources report otherwise
row,binding,Binder
1,binds,B1
2,binds,B2
